Our source for the inhibition values is paper PMC5715595 (British Journal of Pharmacology, 2017).

Chains of the proteins cited; added tags and fusions are not shown.
UniProt Q14524, whole entry: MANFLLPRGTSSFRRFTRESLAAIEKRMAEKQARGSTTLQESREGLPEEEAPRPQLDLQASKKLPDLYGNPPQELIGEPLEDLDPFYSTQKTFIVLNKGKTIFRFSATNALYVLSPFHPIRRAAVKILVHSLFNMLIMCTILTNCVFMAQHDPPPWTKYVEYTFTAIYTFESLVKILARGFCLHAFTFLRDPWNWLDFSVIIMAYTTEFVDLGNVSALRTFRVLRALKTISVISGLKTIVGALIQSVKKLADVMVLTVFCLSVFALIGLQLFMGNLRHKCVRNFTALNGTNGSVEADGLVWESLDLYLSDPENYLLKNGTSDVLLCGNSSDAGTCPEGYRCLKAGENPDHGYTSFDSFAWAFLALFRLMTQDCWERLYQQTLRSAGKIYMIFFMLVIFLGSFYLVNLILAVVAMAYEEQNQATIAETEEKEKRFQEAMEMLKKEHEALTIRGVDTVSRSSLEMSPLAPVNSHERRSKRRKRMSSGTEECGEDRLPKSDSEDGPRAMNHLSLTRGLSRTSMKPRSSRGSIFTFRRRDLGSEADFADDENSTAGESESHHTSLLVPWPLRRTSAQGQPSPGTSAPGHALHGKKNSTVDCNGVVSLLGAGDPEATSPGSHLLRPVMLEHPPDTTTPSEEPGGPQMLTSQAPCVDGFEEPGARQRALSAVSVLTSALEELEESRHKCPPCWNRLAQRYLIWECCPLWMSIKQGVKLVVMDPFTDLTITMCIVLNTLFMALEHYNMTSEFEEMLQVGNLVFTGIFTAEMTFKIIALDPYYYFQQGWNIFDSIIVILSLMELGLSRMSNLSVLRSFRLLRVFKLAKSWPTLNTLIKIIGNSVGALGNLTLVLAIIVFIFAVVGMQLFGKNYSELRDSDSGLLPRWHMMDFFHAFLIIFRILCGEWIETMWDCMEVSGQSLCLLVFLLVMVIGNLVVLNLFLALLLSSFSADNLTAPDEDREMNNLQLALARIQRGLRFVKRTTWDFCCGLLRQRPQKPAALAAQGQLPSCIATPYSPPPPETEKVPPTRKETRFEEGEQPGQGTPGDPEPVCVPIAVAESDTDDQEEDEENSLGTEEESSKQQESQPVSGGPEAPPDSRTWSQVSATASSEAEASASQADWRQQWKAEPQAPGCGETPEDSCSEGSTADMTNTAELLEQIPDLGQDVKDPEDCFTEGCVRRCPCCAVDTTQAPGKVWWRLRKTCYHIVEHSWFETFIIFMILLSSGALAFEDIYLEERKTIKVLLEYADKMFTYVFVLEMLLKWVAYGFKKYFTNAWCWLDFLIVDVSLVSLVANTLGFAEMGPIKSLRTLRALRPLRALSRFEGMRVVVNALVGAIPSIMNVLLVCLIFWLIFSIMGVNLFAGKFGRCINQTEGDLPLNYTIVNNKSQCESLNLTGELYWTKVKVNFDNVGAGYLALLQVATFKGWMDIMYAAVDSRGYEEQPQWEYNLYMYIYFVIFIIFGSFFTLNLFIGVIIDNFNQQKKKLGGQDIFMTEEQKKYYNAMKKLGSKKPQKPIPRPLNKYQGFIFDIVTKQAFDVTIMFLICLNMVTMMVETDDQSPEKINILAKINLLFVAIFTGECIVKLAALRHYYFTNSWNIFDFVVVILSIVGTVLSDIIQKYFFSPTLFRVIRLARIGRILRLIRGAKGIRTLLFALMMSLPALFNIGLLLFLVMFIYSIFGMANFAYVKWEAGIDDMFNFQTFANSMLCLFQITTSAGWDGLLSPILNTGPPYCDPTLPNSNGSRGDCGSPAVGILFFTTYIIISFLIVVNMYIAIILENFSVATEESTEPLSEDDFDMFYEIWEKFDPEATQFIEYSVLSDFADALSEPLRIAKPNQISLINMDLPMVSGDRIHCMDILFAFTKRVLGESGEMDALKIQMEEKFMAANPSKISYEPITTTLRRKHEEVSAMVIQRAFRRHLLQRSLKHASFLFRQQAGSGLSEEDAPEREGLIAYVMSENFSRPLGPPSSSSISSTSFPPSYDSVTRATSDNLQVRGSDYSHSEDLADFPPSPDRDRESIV

What all share (assay): in vitro
Details in all cases: pH 7.4

For data set [1], the target named is NaV1.5 (INa), fast inactivated state (Homo sapiens, UniProt Q14524). On the procedure: (§1) and CiPA Initiative Studies
(§2) =============================================================
(§3) In vitro studies on other ion channels […]
(§4) through NaV1.5, KV4.3, KV7.1/mink, Kir2.1, KV1.5, CaV1.2 and CaV3.2 channels.
(§5) 35-mm dish culture in the conditions mentioned in standard cell culture conditions. Experiments were performed with a cell density enabling isolated cells for patch clamping. Cells were continuously superfused with extracellular medium (1-2 mL∙minute-1) at room temperature.
(§6) D-glucose 10, HEPES 10 and the final pH adjusted to 7.4±0.02 with NaOH for recording NaV1.5, KV4.3, KV7.1/mink, Kir2.1, KV1.5 and CaV3.2 currents. It was (in mM): NaCl 110, KCl 4, BaCl2 20, MgCl2 1, D-glucose 20, HEPES 10 and the final pH adjusted to 7.4 ± 0.02 with NaOH for recording the CaV1.2 current. Compositions of the intracellular solution to fill the pipette are […]
(§7) Composition of intracellular solutions used to fill pipette to record currents through NaV1.5, KV4.3, KV7.1/mink, Kir2.1, KV1.5, CaV1.2 and CaV3.2 channels
(§8) Solution to fill the pipette (mM)
(§9) Creatine-phospho kinase 50 U∙mL-1
(§10) After formation of a Gigaohm seal between the patch electrodes and individual cells (pipette resistance range: 2.0 MΩ - 7.0 MΩ; seal resistance range: > 1 GΩ) the cell membrane across the pipette tip was ruptured to assure electrical access to the cell interior (whole-cell patch-configuration). In case the quality of the seal was poor, the process of seal formation was repeated with a different cell and a new pipette. As soon as a stable seal was established outward tail currents were measured upon pulses described in the Table S2. If current density was judged to be too low for measurement, another cell was recorded. […]
(§11) voltage stimulation protocol indicated in the next table continuously run until the steady-state level of block was reached.
(§12) Stimulation conditions used to record currents through NaV1.5, KV4.3, KV7.1/mink, Kir2.1, KV1.5, CaV1.2 and CaV3.2 channels
(§13) Ion channel Holding potential Pulse / duration Frequency Reference compound […]
(§14) (resting / fast / slow sweeps at one (10 mM) inactivated concentration)

The target in data set [2] is NaV1.5 (INa), resting state (Homo sapiens, UniProt Q14524). On the procedure:
as §1, §2, §3, §4, §5, §6, §7, §8, §9, §10, §11, §12, §13, §14

The target in data set [3] is NaV1.5 (INa), slow inactivated state (Homo sapiens, UniProt Q14524). On the procedure:
as §1, §2, §3, §4, §5, §6, §7, §8, §9, §10, §11, §12, §13, §14

The inhibition is the share of the control response that was lost under treatment. The low end stands for a response near the control, the high end for a response far below the control. For the molecule `CCN(CC)CC(=O)Nc1c(C)cccc1C` [Lidocaine, reference compound], the values for the inhibition at 10 mM in data set [1], in data set [2] and in data set [3] were 99%, 99% and 93%, respectively.
